# Substitutions are numbered along the chain they refer to. The list shows a part of the results. For part of these data: At the low end of the ranking the order means little.
# What was measured:
# Details in all cases: yeast three-hybrid, YBZ-1, SC-Leu-His + 0.5 mM 3-AT, 4 days
# [1] = molecular target: T1, PUM1 PUF domain R1-QFR R2-VFQ R7-NPG S863Q + R864F + Q867R + N899V + Y900F + S1079N + N1080P + E1083G (UniProt Q14671)
# T1 sequence: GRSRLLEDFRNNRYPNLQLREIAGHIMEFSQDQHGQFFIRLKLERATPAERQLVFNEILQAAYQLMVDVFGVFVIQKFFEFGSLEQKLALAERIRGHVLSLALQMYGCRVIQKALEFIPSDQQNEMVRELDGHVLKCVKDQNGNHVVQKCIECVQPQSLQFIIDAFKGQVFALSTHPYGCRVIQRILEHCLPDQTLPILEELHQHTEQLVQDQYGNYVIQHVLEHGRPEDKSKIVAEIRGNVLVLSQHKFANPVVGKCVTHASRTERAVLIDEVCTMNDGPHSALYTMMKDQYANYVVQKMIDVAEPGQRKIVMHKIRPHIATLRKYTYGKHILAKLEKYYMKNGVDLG
# [2] = molecular target: T2, PUM1 PUF domain R3-AAE C935A + R936A + Q939E (UniProt Q14671)
# T2 sequence: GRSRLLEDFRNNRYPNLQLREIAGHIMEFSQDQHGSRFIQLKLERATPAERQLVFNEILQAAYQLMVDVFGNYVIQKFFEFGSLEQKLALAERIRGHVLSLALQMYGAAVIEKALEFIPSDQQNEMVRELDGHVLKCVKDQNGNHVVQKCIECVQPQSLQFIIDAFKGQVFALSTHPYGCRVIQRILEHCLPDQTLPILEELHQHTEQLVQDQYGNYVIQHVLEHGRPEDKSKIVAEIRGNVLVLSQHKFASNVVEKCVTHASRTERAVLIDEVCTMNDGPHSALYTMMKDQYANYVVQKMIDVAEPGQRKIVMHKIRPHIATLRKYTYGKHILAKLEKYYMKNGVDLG
# [3] = molecular target: T3, PUM1 PUF domain R3-ACR C935A + R936C + Q939R (UniProt Q14671)
# T3 sequence: T2 sequence with A109C, E112R
# [4] = molecular target: T4, PUM1 PUF domain R3-AIR C935A + R936I + Q939R (UniProt Q14671)
# T4 sequence: T2 sequence with A109I, E112R
# [5] = molecular target: T5, PUM1 PUF domain R3-APA C935A + R936P + Q939A (UniProt Q14671)
# T5 sequence: T2 sequence with A109P, E112A
# [6] = molecular target: T6, PUM1 PUF domain R3-APF C935A + R936P + Q939F (UniProt Q14671)
# T6 sequence: T2 sequence with A109P, E112F
# [7] = molecular target: T7, PUM1 PUF domain R3-APL C935A + R936P + Q939L (UniProt Q14671)
# T7 sequence: T2 sequence with A109P, E112L
# [8] = molecular target: T8, PUM1 PUF domain R3-APR C935A + R936P + Q939R (UniProt Q14671)
# T8 sequence: T2 sequence with A109P, E112R
# [9] = molecular target: T9, PUM1 PUF domain R3-APV C935A + R936P + Q939V (UniProt Q14671)
# T9 sequence: T2 sequence with A109P, E112V
# [10] = molecular target: T10, PUM1 PUF domain R3-ARA C935A + Q939A (UniProt Q14671)
# T10 sequence: T2 sequence with A109R, E112A
# [11] = molecular target: T11, PUM1 PUF domain R3-ARD C935A + Q939D (UniProt Q14671)
# T11 sequence: T2 sequence with A109R, E112D
# [12] = molecular target: T12, PUM1 PUF domain R3-ARG C935A + Q939G (UniProt Q14671)
# T12 sequence: T2 sequence with A109R, E112G
# [13] = molecular target: T13, PUM1 PUF domain R3-ARL C935A + Q939L (UniProt Q14671)
# T13 sequence: T2 sequence with A109R, E112L
# [14] = molecular target: T14, PUM1 PUF domain R3-ARP C935A + Q939P (Homo sapiens) (UniProt Q14671)
# T14 sequence: T2 sequence with A109R, E112P
# [15] = molecular target: T15, PUM1 PUF domain R3-ARR C935A + Q939R (Homo sapiens) (UniProt Q14671)
# T15 sequence: T2 sequence with A109R, E112R
# [16] = molecular target: T16, PUM1 PUF domain R3-ARS C935A + Q939S (UniProt Q14671)
# T16 sequence: T2 sequence with A109R, E112S
# [17] = molecular target: T17, PUM1 PUF domain R3-ART C935A + Q939T (UniProt Q14671)
# T17 sequence: T2 sequence with A109R, E112T
# [18] = molecular target: T18, PUM1 PUF domain R3-ARV C935A + Q939V (UniProt Q14671)
# T18 sequence: T2 sequence with A109R, E112V
# [19] = molecular target: T19, PUM1 PUF domain R3-ASE C935A + R936S + Q939E (UniProt Q14671)
# T19 sequence: T2 sequence with A109S
# [20] = molecular target: T20, PUM1 PUF domain R3-ASY C935A + R936S + Q939Y (UniProt Q14671)
# T20 sequence: T2 sequence with A109S, E112Y
# [21] = molecular target: T21, PUM1 PUF domain R3-ATE C935A + R936T + Q939E (UniProt Q14671)
# T21 sequence: T2 sequence with A109T
# [22] = molecular target: T22, PUM1 PUF domain R3-AWG C935A + R936W + Q939G (UniProt Q14671)
# T22 sequence: T2 sequence with A109W, E112G
# [23] = molecular target: T23, PUM1 PUF domain R3-CHG R936H + Q939G (UniProt Q14671)
# T23 sequence: T2 sequence with A108C, A109H, E112G
# [24] = molecular target: T24, PUM1 PUF domain R3-CNE R936N + Q939E (UniProt Q14671)
# T24 sequence: T2 sequence with A108C, A109N
# [25] = molecular target: T25, PUM1 PUF domain R3-CPG R936P + Q939G (UniProt Q14671)
# T25 sequence: T2 sequence with A108C, A109P, E112G
# [26] = molecular target: T26, PUM1 PUF domain R3-DAK C935D + R936A + Q939K (UniProt Q14671)
# T26 sequence: T2 sequence with A108D, E112K
# [27] = molecular target: T27, PUM1 PUF domain R3-DFE C935D + R936F + Q939E (UniProt Q14671)
# T27 sequence: T2 sequence with A108D, A109F
# [28] = molecular target: T28, PUM1 PUF domain R3-DFL C935D + R936F + Q939L (UniProt Q14671)
# T28 sequence: T2 sequence with A108D, A109F, E112L
# [29] = molecular target: T29, PUM1 PUF domain R3-DFV C935D + R936F + Q939V (UniProt Q14671)
# T29 sequence: T2 sequence with A108D, A109F, E112V
# [30] = molecular target: T30, PUM1 PUF domain R3-DHR C935D + R936H + Q939R (UniProt Q14671)
# T30 sequence: T2 sequence with A108D, A109H, E112R
sequence,measurement,setting,value
GGCUAGAACUAGUGGAUCCCCCGGCGCCCGGCGGCUCGAGCCCGGGUAAGUGUAACUAGUCUGCAUGCCGCCGGGCGCCAUGCCUGCAGGUCGACUCUAGAAAACAUG,binding signal (log2 enrichment (interaction score)),[1],-5.45
same,binding signal (log2 enrichment (interaction score)),[2],< -7.64
same,binding signal (log2 enrichment (interaction score)),[3],-2.13
same,binding signal (log2 enrichment (interaction score)),[4],< -8.87
same,binding signal (log2 enrichment (interaction score)),[5],< -8.57
same,binding signal (log2 enrichment (interaction score)),[6],< -7.15
same,binding signal (log2 enrichment (interaction score)),[7],< -8.01
same,binding signal (log2 enrichment (interaction score)),[8],-4.19
same,binding signal (log2 enrichment (interaction score)),[9],< -7.65
same,binding signal (log2 enrichment (interaction score)),[10],-2.74
same,binding signal (log2 enrichment (interaction score)),[11],< -9.37
same,binding signal (log2 enrichment (interaction score)),[12],-2.58
same,binding signal (log2 enrichment (interaction score)),[13],-4.23
same,binding signal (log2 enrichment (interaction score)),[14],-1.81
same,binding signal (log2 enrichment (interaction score)),[15],0.01
same,binding signal (log2 enrichment (interaction score)),[16],-2.77
same,binding signal (log2 enrichment (interaction score)),[17],< -7.11
same,binding signal (log2 enrichment (interaction score)),[18],-3
same,binding signal (log2 enrichment (interaction score)),[19],-3.09
same,binding signal (log2 enrichment (interaction score)),[20],< -7.47
same,binding signal (log2 enrichment (interaction score)),[21],< -7.14
same,binding signal (log2 enrichment (interaction score)),[22],< -8.31
same,binding signal (log2 enrichment (interaction score)),[23],< -6.44
same,binding signal (log2 enrichment (interaction score)),[24],< -8.02
same,binding signal (log2 enrichment (interaction score)),[25],-5.73
same,binding signal (log2 enrichment (interaction score)),[26],< -7.35
same,binding signal (log2 enrichment (interaction score)),[27],-4.08
same,binding signal (log2 enrichment (interaction score)),[28],< -8.48
same,binding signal (log2 enrichment (interaction score)),[29],< -7.98
same,binding signal (log2 enrichment (interaction score)),[30],-2.67

# Part of the list above, with bars between the fields:
sequence | measurement | setting | value
GGCUAGAACUAGUGGAUCCCCCGGCGCCCGGCGGCUCGAGCCCGGGUAAGUGUAACUAGUCUGCAUGCCGCCGGGCGCCAUGCCUGCAGGUCGACUCUAGAAAACAUG | binding signal (log2 enrichment (interaction score)) | [27] | -4.08
same | binding signal (log2 enrichment (interaction score)) | [28] | < -8.48
